Measurements reported in PubChem BioAssay AID504764 (Drosophila RNAi Screening Center, 2011).

Aim: 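Knock-downs that raise or lower a Notch target reporter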 (primary screen)
System: Drosophila Kc167 cells
Reagent: long dsRNA against Drosophila genes
Time to read-out: about 5 days (4 days dsRNA, then 24 h after transfection)
Conditions: transfection of constitutively active membrane-tethered Notch lacking the extracellular domain, read 24 h later
Read-out: 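Firefly luciferase from an E(spl)m3 reporter with active Notch, plus control-promoter and uninduced reporter wells for normalisation; unnormalised counts, duplicate wells a and b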
Scale: induced reporter light, run 1, well a and induced reporter light, run 1, well b: higher = more light from the Notch target reporter with active Notch; control promoter light, run 1, well a and control promoter light, run 1, well b: higher = more light from the viral control promoter (cell number, transfection, viability); uninduced reporter light, run 1, well a: higher = more light from the Notch target reporter without active Notch
Rule for the call: 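Wells with low control signal or poorly matching duplicates excluded; duplicates averaged; per source plate, z beyond ±2 for induced/control log2 ratio or beyond ±1.8 for induced/uninduced marks a hit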
Calls: active = modifier hit (raised or lowered Notch signal); inactive = not a hit
The deposit covers about 22,000 reagents; this is a random part of those that have a named target and a result. Over the whole deposit, 403 (1.9%) were called active. 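Unnormalised raw counts per well; ratio z-scores behind the hit calls and whether each hit raises or lowers signal are not deposited.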 Unmarked entries are inactive. Not given: the amount of reagent.

With Apc (GeneID 44642) [DRSC14114], what was measured?
induced reporter light, run 1, well a: 1.12e5; induced reporter light, run 1, well b: 1.08e5; control promoter light, run 1, well a: 1.74e5; control promoter light, run 1, well b: 1.50e5; uninduced reporter light, run 1, well a: 12360

Which result is listed for aly (GeneID 45960) [DRSC08707]?
induced reporter light, run 1, well a: 1.27e5; induced reporter light, run 1, well b: 1.57e5; control promoter light, run 1, well a: 1.81e5; control promoter light, run 1, well b: 1.66e5; uninduced reporter light, run 1, well a: 10175

What did the screen give for Reg-5 (GeneID 37968) [DRSC04647]?
induced reporter light, run 1, well a: 1.82e5; induced reporter light, run 1, well b: 1.58e5; control promoter light, run 1, well a: 1.87e5; control promoter light, run 1, well b: 1.89e5; uninduced reporter light, run 1, well a: 11840

What is on record for CG4440 (GeneID 50458) [DRSC02747]?
induced reporter light, run 1, well a: 77400; induced reporter light, run 1, well b: 1.12e5; control promoter light, run 1, well a: 92000; control promoter light, run 1, well b: 1.09e5; uninduced reporter light, run 1, well a: 9270

What is on record for ERp60 (GeneID 36270) [DRSC07309]?
induced reporter light, run 1, well a: 1.74e5 (active); induced reporter light, run 1, well b: 1.57e5; control promoter light, run 1, well a: 2.03e5; control promoter light, run 1, well b: 2.36e5; uninduced reporter light, run 1, well a: 16050

For CanB2 (GeneID 46456) [DRSC07355], how do the results read?
induced reporter light, run 1, well a: 1.64e5; induced reporter light, run 1, well b: 2.01e5; control promoter light, run 1, well a: 2.64e5; control promoter light, run 1, well b: 3.00e5; uninduced reporter light, run 1, well a: 14620

What did the screen give for IKKbeta (GeneID 44432) [DRSC16714]?
induced reporter light, run 1, well a: 1.87e5; induced reporter light, run 1, well b: 1.95e5; control promoter light, run 1, well a: 2.38e5; control promoter light, run 1, well b: 3.34e5; uninduced reporter light, run 1, well a: 19285

Which result is listed for CG11663 (GeneID 31036) [DRSC17793]?
induced reporter light, run 1, well a: 27145; induced reporter light, run 1, well b: 29470; control promoter light, run 1, well a: 52620; control promoter light, run 1, well b: 50465; uninduced reporter light, run 1, well a: 6250

What did the screen give for CG16825 (GeneID 34739) [DRSC02526]?
induced reporter light, run 1, well a: 1.53e5; induced reporter light, run 1, well b: 1.73e5; control promoter light, run 1, well a: 1.59e5; control promoter light, run 1, well b: 1.79e5; uninduced reporter light, run 1, well a: 15045

What did the screen give for Myd88 (GeneID 35956) [DRSC06815]?
induced reporter light, run 1, well a: 1.24e5; induced reporter light, run 1, well b: 1.49e5; control promoter light, run 1, well a: 1.12e5; control promoter light, run 1, well b: 1.22e5; uninduced reporter light, run 1, well a: 9000

Which result is listed for Rpn1 (GeneID 40174) [DRSC11274]?
induced reporter light, run 1, well a: 7575; induced reporter light, run 1, well b: 6765; control promoter light, run 1, well a: 5480; control promoter light, run 1, well b: 6855; uninduced reporter light, run 1, well a: 1120

With Cdc2rk (GeneID 36051) [DRSC07590], how do the results read?
induced reporter light, run 1, well a: 1.97e5; induced reporter light, run 1, well b: 1.68e5; control promoter light, run 1, well a: 2.11e5; control promoter light, run 1, well b: 2.30e5; uninduced reporter light, run 1, well a: 15795

Single entries from the list:
CG16825 (GeneID 34739) [DRSC02526], uninduced reporter light, run 1, well a: 15045
Rpn1 (GeneID 40174) [DRSC11274], uninduced reporter light, run 1, well a = 1120
